One substance from publication PMC4123098 can be followed below.

The target in this test is DJ-1-CFPC (WT) (UniProt Q99497). The experiment in a line: split reporter; BiFC in living HEK293 cells co-transfected with two constructs; green fluorescence normalised to co-transfected mCherry or RFP; 30 °C overnight before imaging.

Results are given in words; binding and its absence hold for the method and conditions named. In cells and extracts the contact can be indirect. Some results given as binding are weak or reduced against the parent protein; the word gives no strength.

As for “DJ-1-GFPN (WT) (from UniProt Q99497 1-189) (other; other documents disagree on this pair)”, the binding result is on record as “binds”.
